Assay results from doi:10.1101/2025.09.06.674610.
Results are given in words; binding and its absence hold for the method and conditions named. Binding seen in cells or lysates may run through a third protein. For part of these data: Binding can be weak; no strength is given.

Sequences of proteins named here, by UniProt entry; tags and fusion partners are left off.
UniProt Q39026: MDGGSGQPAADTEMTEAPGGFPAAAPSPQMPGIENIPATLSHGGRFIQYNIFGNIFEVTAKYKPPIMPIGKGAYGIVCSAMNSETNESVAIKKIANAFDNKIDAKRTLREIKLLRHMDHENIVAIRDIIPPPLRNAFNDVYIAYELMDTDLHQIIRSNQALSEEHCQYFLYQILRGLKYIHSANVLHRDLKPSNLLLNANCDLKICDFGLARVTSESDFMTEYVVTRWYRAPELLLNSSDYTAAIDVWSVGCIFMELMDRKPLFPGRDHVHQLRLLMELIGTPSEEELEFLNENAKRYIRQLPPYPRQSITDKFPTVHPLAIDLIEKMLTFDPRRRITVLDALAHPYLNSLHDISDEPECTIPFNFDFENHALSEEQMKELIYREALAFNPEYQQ

How the values were obtained:
[1] = biological target: AtMPK6, split-YFP fusion for BiFC (Arabidopsis thaliana) (UniProt Q39026); assay: split reporter
[2] = biological target: HvTOL8 (barley TOM1-like protein 8), split-YFP fusion for BiFC (barley (Hordeum vulgare)); assay: split reporter

Substance | binding [1] | binding [2]
HvTOL1 (barley TOM1-like protein 1), split-YFP fusion for BiFC (from UniProt A0A8I6YCT7) | no binding | binds weakly
HvTOL8 (barley TOM1-like protein 8), split-YFP fusion for BiFC (from UniProt A0A8I6YP48) | no binding | 
